These are yes or no findings as the source states them, for the method shown. Binding can be weak; no strength is given.
Key:
[1] = molecular target: VLDLR(28-797)Δ(751-779)-C-tag (VLDLR ectodomain, VLDLR-ed) (human) (UniProt P98155); test: ELISA
[2] = molecular target: VLDLR(28-797)Δ(751-779)-C-tag (VLDLR ectodomain, VLDLR-ed) (human) (UniProt P98155); test: pull-down

binding [1]: binds | binding [2]: binds
B1: wild-type clusterin (WT-Clu) (natural protein, human)
chain 1: DQTVSDNELQEMSNQGSKYVNKEIQNAVNGVKQIKTLIEKTNEERKTLLSNLEEAKKKKEDALNETRESETKLKELPGVCNETMMALWEECKPCLKQTCMKFYARVCRSGSGLVGRQLEEFLNQSSPFYFWMNGDRIDSLLENDRQQTHMLDVMQDHFSRASSIIDELFQDRFFTREPQDTYHYLPFSLPHRRPHFFFPKSRIVR
chain 2: SLMPFSPYEPLNFHAMFQPFLEMIHEAQQAMDIHFHSPAFQHPPTEFIREGDDDRTVCREIRHNSTGCLRMKDQCDKCREILSVDCSTNNPSQAKLRRELDESLQVAERLTRKYNELLKSYQWKMLNTSSLLEQLNEQFNWVSRLANLTQGEDQYYLRVTTVASHTSDSDVPSGVTEVVVKLFDSDPITVTVPVEVSRKNPKFMETVAEKALQEYRKKHREE
modifications: N-glycans (six in the whole protein) | N-glycans (six in the whole protein)

Source: paper doi:10.1101/2024.10.30.620894 (bioRxiv, 2024)
